Drawing on the supplement of paper PMC12595434, “Development of retinoid nuclear receptor pathway antagonists through targeting aldehyde dehydrogenase 1A3” (iScience, 2025), this text covers melting temperature shift for 62 targets.

Amino acid sequences for entries named in this document (tags omitted). A change or cut given only in a name is not applied to a line headed by its entry.
UniProt O43542: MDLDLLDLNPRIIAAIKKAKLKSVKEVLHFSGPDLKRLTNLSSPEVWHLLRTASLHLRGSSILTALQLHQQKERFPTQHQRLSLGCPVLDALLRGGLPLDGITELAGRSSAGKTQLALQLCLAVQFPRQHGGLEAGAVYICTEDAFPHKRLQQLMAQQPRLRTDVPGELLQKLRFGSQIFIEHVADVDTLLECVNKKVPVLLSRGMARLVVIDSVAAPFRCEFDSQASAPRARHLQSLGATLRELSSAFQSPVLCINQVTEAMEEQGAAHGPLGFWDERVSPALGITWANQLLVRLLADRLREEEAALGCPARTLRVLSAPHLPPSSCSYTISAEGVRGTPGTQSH
UniProt O60671: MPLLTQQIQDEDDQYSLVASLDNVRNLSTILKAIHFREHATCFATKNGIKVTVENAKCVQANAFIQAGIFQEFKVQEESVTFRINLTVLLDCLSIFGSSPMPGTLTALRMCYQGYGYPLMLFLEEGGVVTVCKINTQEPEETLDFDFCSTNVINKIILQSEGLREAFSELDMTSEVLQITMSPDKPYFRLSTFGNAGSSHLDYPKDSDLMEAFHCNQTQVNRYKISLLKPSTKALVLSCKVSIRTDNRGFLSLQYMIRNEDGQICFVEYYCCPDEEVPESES
UniProt O75832: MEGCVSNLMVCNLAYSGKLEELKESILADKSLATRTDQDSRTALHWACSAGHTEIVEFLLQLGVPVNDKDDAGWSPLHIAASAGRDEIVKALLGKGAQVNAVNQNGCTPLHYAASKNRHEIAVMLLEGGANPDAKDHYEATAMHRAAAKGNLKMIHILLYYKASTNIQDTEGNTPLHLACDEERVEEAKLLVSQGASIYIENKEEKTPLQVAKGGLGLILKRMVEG
UniProt O60307: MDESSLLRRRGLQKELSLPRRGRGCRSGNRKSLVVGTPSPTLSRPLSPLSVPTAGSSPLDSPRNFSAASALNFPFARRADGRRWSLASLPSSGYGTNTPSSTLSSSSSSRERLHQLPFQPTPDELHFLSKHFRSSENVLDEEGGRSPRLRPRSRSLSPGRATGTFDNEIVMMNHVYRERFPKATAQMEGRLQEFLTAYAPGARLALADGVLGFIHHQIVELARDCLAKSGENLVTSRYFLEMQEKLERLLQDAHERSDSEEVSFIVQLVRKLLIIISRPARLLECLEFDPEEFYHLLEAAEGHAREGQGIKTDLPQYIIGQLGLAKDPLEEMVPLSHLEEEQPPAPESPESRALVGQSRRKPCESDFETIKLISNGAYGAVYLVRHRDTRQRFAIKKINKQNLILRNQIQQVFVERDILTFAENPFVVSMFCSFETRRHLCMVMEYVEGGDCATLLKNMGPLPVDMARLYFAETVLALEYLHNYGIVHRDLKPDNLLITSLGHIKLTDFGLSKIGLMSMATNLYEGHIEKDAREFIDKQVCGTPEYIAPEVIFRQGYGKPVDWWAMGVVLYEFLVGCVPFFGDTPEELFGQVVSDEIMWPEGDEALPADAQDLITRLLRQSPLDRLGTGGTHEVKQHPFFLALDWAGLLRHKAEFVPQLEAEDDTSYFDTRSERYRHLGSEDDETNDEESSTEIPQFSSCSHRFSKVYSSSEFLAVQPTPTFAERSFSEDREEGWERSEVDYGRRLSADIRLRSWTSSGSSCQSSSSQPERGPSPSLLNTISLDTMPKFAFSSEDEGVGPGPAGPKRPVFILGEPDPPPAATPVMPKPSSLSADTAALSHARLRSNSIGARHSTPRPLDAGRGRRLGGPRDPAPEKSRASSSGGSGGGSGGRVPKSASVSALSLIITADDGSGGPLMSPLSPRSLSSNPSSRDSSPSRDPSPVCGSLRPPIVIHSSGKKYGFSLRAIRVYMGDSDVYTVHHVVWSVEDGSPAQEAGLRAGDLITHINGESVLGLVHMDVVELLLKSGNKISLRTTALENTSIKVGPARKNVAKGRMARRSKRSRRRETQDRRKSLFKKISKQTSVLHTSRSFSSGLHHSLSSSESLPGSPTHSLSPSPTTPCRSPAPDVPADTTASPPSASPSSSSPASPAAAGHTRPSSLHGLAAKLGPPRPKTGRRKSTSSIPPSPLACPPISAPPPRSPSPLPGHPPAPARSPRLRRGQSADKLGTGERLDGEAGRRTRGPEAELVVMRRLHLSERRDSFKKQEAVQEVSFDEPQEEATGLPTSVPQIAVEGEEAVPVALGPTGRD
UniProt O75531: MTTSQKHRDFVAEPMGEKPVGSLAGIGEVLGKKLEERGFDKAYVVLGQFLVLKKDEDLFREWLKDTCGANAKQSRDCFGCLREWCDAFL
UniProt O60879: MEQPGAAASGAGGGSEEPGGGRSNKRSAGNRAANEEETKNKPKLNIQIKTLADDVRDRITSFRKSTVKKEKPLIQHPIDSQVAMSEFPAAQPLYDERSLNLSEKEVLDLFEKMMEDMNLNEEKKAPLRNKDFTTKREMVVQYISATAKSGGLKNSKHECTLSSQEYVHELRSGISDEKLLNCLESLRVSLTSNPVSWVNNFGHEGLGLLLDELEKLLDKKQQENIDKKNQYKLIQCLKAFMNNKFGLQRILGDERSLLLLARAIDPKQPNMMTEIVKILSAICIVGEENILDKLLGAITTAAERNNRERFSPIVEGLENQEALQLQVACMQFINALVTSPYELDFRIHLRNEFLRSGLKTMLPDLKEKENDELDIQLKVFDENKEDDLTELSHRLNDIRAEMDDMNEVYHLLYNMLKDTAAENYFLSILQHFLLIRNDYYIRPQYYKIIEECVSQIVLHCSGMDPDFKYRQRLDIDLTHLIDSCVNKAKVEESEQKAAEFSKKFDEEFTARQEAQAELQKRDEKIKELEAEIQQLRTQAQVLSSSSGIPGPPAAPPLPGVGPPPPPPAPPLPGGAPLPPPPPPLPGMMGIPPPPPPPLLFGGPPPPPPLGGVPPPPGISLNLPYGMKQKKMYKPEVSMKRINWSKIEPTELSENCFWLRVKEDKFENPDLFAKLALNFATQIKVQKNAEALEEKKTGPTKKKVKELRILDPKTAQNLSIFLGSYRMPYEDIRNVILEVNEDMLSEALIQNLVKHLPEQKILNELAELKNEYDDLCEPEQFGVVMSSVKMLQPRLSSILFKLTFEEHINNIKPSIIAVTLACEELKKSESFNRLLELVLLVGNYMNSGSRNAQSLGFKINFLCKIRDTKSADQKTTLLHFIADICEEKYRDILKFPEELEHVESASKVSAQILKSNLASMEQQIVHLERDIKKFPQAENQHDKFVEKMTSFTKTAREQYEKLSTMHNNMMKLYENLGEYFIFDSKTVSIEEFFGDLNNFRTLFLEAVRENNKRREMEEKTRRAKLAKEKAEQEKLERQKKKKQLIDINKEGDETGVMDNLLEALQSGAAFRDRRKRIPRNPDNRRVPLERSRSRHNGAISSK
UniProt O60725, whole entry: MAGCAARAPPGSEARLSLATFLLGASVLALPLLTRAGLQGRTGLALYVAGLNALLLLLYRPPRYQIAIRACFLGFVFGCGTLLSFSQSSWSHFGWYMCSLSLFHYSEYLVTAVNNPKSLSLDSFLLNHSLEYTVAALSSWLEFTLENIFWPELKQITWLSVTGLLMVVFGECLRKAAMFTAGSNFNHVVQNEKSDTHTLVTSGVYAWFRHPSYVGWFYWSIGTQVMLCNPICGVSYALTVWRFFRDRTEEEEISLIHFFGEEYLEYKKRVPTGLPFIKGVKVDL
UniProt O43819: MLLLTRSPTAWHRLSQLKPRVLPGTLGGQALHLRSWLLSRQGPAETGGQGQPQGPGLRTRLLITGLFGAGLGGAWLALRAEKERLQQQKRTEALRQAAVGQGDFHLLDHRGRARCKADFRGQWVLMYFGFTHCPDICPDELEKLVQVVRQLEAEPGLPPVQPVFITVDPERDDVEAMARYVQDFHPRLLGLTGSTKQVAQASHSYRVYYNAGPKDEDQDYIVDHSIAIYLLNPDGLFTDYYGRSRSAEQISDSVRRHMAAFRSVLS
UniProt O60826, whole entry: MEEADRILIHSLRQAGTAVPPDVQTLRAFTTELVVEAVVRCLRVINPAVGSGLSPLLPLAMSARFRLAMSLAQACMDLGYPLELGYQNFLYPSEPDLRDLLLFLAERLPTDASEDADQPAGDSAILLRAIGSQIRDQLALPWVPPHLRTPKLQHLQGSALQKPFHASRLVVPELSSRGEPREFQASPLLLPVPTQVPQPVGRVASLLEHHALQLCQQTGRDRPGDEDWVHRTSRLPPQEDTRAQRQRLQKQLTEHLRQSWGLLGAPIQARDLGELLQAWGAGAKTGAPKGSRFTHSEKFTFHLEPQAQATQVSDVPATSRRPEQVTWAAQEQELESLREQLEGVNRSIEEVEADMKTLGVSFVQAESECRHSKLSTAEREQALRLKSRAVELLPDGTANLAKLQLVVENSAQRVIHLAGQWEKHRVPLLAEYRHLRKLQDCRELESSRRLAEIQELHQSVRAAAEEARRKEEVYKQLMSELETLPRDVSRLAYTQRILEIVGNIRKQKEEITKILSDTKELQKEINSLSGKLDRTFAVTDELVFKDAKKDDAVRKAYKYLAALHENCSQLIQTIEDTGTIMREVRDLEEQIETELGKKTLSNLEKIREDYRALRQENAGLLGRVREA
UniProt O43865, whole entry: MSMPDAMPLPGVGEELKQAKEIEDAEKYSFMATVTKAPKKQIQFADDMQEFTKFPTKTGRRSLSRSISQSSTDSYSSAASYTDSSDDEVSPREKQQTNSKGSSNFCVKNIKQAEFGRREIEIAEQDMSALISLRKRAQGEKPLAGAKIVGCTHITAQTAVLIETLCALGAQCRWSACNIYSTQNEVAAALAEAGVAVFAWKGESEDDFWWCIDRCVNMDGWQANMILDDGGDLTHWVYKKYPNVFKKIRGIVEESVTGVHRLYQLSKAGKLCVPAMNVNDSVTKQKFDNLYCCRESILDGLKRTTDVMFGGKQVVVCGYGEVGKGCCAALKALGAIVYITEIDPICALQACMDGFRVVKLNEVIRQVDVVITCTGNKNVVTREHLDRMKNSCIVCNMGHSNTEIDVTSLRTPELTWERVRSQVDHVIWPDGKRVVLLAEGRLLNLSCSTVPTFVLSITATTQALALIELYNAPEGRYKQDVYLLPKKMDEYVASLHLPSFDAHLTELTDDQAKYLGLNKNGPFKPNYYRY
UniProt O60336: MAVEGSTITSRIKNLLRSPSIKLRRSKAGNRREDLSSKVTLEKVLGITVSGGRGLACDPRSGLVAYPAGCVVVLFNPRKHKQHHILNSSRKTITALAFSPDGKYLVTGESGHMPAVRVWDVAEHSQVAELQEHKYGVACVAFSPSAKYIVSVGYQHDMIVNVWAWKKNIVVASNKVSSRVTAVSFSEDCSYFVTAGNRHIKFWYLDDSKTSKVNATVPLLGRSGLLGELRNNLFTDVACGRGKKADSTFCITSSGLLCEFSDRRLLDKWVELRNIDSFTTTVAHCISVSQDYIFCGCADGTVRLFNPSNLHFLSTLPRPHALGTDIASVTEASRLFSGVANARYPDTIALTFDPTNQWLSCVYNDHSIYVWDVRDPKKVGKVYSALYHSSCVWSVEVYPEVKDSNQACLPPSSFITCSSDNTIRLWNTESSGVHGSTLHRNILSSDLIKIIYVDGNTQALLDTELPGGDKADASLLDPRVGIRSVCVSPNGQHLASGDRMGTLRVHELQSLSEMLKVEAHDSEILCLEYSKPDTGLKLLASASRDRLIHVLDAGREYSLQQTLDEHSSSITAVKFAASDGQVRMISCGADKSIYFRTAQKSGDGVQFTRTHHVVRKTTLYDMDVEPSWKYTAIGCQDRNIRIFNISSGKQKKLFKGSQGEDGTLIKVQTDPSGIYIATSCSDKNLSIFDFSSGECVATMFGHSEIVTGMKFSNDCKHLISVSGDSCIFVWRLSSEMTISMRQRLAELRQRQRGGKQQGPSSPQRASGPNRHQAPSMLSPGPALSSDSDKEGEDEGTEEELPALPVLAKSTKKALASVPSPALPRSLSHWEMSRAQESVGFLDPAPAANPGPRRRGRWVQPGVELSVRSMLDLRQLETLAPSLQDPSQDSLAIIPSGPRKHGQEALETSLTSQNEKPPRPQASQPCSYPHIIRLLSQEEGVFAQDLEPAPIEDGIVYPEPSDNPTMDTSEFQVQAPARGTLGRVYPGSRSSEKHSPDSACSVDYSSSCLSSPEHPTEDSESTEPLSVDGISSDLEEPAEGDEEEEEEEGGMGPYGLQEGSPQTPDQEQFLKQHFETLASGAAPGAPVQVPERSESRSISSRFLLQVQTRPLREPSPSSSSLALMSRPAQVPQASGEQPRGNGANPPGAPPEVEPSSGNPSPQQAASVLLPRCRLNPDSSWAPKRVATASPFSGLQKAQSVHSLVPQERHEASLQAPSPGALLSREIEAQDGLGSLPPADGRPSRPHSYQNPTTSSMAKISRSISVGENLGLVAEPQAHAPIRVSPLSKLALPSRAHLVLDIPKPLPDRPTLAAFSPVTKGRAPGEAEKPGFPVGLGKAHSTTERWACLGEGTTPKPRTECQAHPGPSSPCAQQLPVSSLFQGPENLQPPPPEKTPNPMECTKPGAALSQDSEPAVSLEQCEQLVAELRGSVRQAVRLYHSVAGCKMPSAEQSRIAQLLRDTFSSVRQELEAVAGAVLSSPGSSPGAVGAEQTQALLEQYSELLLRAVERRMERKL

Compound in this assay: CCc1cnccc1C(=O)Nc1cc2c(cc1F)NC(=O)CC2
As to the kind of experiment: melting temperature shift (DMSO Tm minus MBE1-treated Tm) in cellular thermal proteome profiling; higher = less thermal stabilization by MBE1 (negative = stabilized by MBE1). The note with it: A375.

The other results are listed elsewhere or left out. Single values of this set are uncertain.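 Tm was set to 64 °C where no melting was found, and many curves are irregular.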

As to UniProt O60637, under “MBE1 concentration: 1 uM”, the melting temperature shift is -3.02 °C.
In the case of TACC1 (UniProt O75410), the melting temperature shift is -1.59 °C (MBE1 concentration: 100 nM) and -0.488 °C (MBE1 concentration: 1 uM).
UniProt O43542: the melting temperature shift is, setting by setting: (MBE1 concentration: 100 nM) 3 °C; (MBE1 concentration: 1 uM) 0.653 °C.
On to PPP6R2 (UniProt O75170), for which the melting temperature shift (MBE1 concentration: 100 nM) was 0.221 °C and the melting temperature shift (MBE1 concentration: 1 uM) amounted to 2.54 °C.
With ENSA (UniProt O43768), the melting temperature shift (MBE1 concentration: 1 uM) was -7.38 °C.
For the target RPS6KA5 (UniProt O75582), the melting temperature shift was -0.358 °C (MBE1 concentration: 100 nM) and -0.339 °C (MBE1 concentration: 1 uM).
Consider RAD1 (UniProt O60671), for which the melting temperature shift by setting is: (MBE1 concentration: 100 nM) 0.0122 °C; (MBE1 concentration: 1 uM) -0.433 °C.
Taken in the same sequence, the figures for UniProt O75038 were 0 °C and 3.27 °C.
Taken in the same sequence, the figures for CHMP2A (UniProt O43633) were -0.757 °C and 0.189 °C.
On to PHACTR2 (UniProt O75167), for which the melting temperature shift is, setting by setting: (MBE1 concentration: 100 nM) -0.323 °C; (MBE1 concentration: 1 uM) 0.409 °C.
In the case of UniProt O75771, the melting temperature shift (MBE1 concentration: 100 nM) is -0.753 °C and the melting temperature shift (MBE1 concentration: 1 uM) is 0.721 °C.
Taken in the same sequence, the figures for UniProt O75506 were -2.8 °C and -1.74 °C.
The corresponding values for ROCK2 (UniProt O75116) are 0.354 °C and -0.165 °C.
As for SCO1 (UniProt O75880), the melting temperature shift (MBE1 concentration: 1 uM) turned out to be 8.34 °C.
Regarding N4BP1 (UniProt O75113), the melting temperature shift (MBE1 concentration: 100 nM) was -0.433 °C and the melting temperature shift (MBE1 concentration: 1 uM) is -0.908 °C.
UniProt O60347: the melting temperature shift (MBE1 concentration: 1 uM) was -1.43 °C.
With ATP9A (UniProt O75110), the melting temperature shift (MBE1 concentration: 100 nM) is -1.14 °C and the melting temperature shift (MBE1 concentration: 1 uM) was -2.3 °C.
The corresponding values for NDUFS6 (UniProt O75380) are -11 °C and -5.62 °C.
As for PEX14 (UniProt O75381), the melting temperature shift is, setting by setting: (MBE1 concentration: 100 nM) -3.29 °C; (MBE1 concentration: 1 uM) 0.635 °C.
PRMT3 (UniProt O60678): the melting temperature shift is, setting by setting: (MBE1 concentration: 100 nM) 0.659 °C; (MBE1 concentration: 1 uM) 0.385 °C.
In the case of ZFC3H1 (UniProt O60293), the melting temperature shift is, setting by setting: (MBE1 concentration: 100 nM) -0.801 °C; (MBE1 concentration: 1 uM) 0.0513 °C.
With VPS26A (UniProt O75436), the melting temperature shift reads like this: (MBE1 concentration: 100 nM) -0.798 °C; (MBE1 concentration: 1 uM) -0.516 °C.
For the target WDHD1 (UniProt O75717), the melting temperature shift was 4.59 °C (MBE1 concentration: 100 nM) and 1.72 °C (MBE1 concentration: 1 uM).
Turning to TIPRL (UniProt O75663), the melting temperature shift is, setting by setting: (MBE1 concentration: 100 nM) 1.23 °C; (MBE1 concentration: 1 uM) 0.574 °C.
Consider ZPR1 (UniProt O75312), for which the melting temperature shift reads like this: (MBE1 concentration: 100 nM) -0.818 °C; (MBE1 concentration: 1 uM) 0.0488 °C.
As to PSMD10 (UniProt O75832), the melting temperature shift (MBE1 concentration: 100 nM) was -0.342 °C and the melting temperature shift (MBE1 concentration: 1 uM) is -0.391 °C.
For KLF4 (UniProt O43474), under “MBE1 concentration: 100 nM”, the melting temperature shift was -1.97 °C.
Consider DKC1 (UniProt O60832), for which the melting temperature shift (MBE1 concentration: 100 nM) was found to be 0.165 °C and the melting temperature shift (MBE1 concentration: 1 uM) was determined as 0.562 °C.
As to ERLIN1 (UniProt O75477), the melting temperature shift by setting is: (MBE1 concentration: 100 nM) -0.22 °C; (MBE1 concentration: 1 uM) 0.464 °C.
Regarding CALU (UniProt O43852), for the setting “MBE1 concentration: 1 uM”, the melting temperature shift was -3.65 °C.
With MAST3 (UniProt O60307), the melting temperature shift (MBE1 concentration: 100 nM) stood at 0.262 °C and the melting temperature shift (MBE1 concentration: 1 uM) is -0.496 °C.
Taken in the same sequence, the figures for NRDC (UniProt O43847) were 1.15 °C and 0.421 °C.
Regarding MAN1A2 (UniProt O60476), the melting temperature shift is -0.657 °C (MBE1 concentration: 100 nM) and 0.241 °C (MBE1 concentration: 1 uM).
In the case of UniProt O43791, the melting temperature shift (MBE1 concentration: 1 uM) came out at 1.13 °C.
On to RNASEH2A (UniProt O75792), for which the melting temperature shift is 0.22 °C (MBE1 concentration: 100 nM) and -0.0366 °C (MBE1 concentration: 1 uM).
Regarding WBP4 (UniProt O75554), the melting temperature shift (MBE1 concentration: 1 uM) amounted to 17.2 °C.
Take UniProt O43639: the melting temperature shift is 0.16 °C (MBE1 concentration: 100 nM) and -0.0423 °C (MBE1 concentration: 1 uM).
The corresponding values for EMC8 (UniProt O43402) are -1.07 °C and -0.322 °C.
For the target KATNA1 (UniProt O75449), the melting temperature shift (MBE1 concentration: 100 nM) was found to be 1.29 °C and the melting temperature shift (MBE1 concentration: 1 uM) is -0.0305 °C.
Consider BANF1 (UniProt O75531), for which the melting temperature shift was -0.879 °C (MBE1 concentration: 100 nM) and 0.262 °C (MBE1 concentration: 1 uM).
On to ZNF207 (UniProt O43670), for which the melting temperature shift is, setting by setting: (MBE1 concentration: 100 nM) -2.05 °C; (MBE1 concentration: 1 uM) -3.66 °C.
In the case of ASNA1 (UniProt O43681), the melting temperature shift by setting is: (MBE1 concentration: 100 nM) -0.751 °C; (MBE1 concentration: 1 uM) 1.05 °C.
Regarding SPAG7 (UniProt O75391), the melting temperature shift is -2.85 °C (MBE1 concentration: 100 nM) and -0.806 °C (MBE1 concentration: 1 uM).
As to GSTZ1 (UniProt O43708), the melting temperature shift is -0.0733 °C (MBE1 concentration: 100 nM) and 0.397 °C (MBE1 concentration: 1 uM).
XPOT (UniProt O43592): the melting temperature shift is -0.0244 °C (MBE1 concentration: 100 nM) and -0.397 °C (MBE1 concentration: 1 uM).
Turning to UniProt O60879, the melting temperature shift was -0.622 °C (MBE1 concentration: 100 nM) and -0.565 °C (MBE1 concentration: 1 uM).
The corresponding values for UniProt O60725 are -0.348 °C and 0.672 °C.
The corresponding values for SCO2 (UniProt O43819) are -0.0855 °C and 5 °C.
Regarding CCDC22 (UniProt O60826), the melting temperature shift runs as follows: (MBE1 concentration: 100 nM) 0.507 °C; (MBE1 concentration: 1 uM) -0.0916 °C.
Regarding ATG13 (UniProt O75143), the melting temperature shift was found to be 0.727 °C (MBE1 concentration: 100 nM) and 0.183 °C (MBE1 concentration: 1 uM).
Take FLNB (UniProt O75369): the melting temperature shift runs as follows: (MBE1 concentration: 100 nM) 0.177 °C; (MBE1 concentration: 1 uM) 0.488 °C.
Consider WBSCR22 (UniProt O43709), for which the melting temperature shift reads like this: (MBE1 concentration: 100 nM) -0.671 °C; (MBE1 concentration: 1 uM) 0.86 °C.
As to DNAJA2 (UniProt O60884), the melting temperature shift by setting is: (MBE1 concentration: 100 nM) -1.14 °C; (MBE1 concentration: 1 uM) 0.449 °C.
As for AHCYL1 (UniProt O43865), the melting temperature shift is, setting by setting: (MBE1 concentration: 100 nM) -0.0201 °C; (MBE1 concentration: 1 uM) 0.349 °C.
Take UniProt O60229: the melting temperature shift by setting is: (MBE1 concentration: 100 nM) -1.09 °C; (MBE1 concentration: 1 uM) -5 °C.
As for UniProt O60336, the melting temperature shift reads like this: (MBE1 concentration: 100 nM) -0.964 °C; (MBE1 concentration: 1 uM) -0.546 °C.
The corresponding values for UniProt O43422 are 0.198 °C and -0.442 °C.
TBC1D4 (UniProt O60343): the melting temperature shift was 1.17 °C (MBE1 concentration: 100 nM) and 0.525 °C (MBE1 concentration: 1 uM).
In the case of CLUH (UniProt O75153), the melting temperature shift (MBE1 concentration: 100 nM) came out at 0.464 °C and the melting temperature shift (MBE1 concentration: 1 uM) amounted to 0.452 °C.
Regarding PLIN3 (UniProt O60664), the melting temperature shift (MBE1 concentration: 100 nM) was -2.69 °C and the melting temperature shift (MBE1 concentration: 1 uM) was 0.716 °C.
For SSNA1 (UniProt O43805), the melting temperature shift by setting is: (MBE1 concentration: 100 nM) -1.66 °C; (MBE1 concentration: 1 uM) 1.36 °C.
For ERAL1 (UniProt O75616), the melting temperature shift was -0.538 °C (MBE1 concentration: 100 nM) and -0.333 °C (MBE1 concentration: 1 uM).
